Values from PubChem BioAssay AID1259266 (Sanger Institute, 2017)

Screen: 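Search kinases and colorectal cancer genes for essential genes and drug synergy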 (primary screen)
Cells: LS123 human colorectal cancer cells
Reagent: siRNA pool against human genes
Treatment: anchor drugs BYL719 (1 µM), cetuximab (5 µg/ml) or trametinib (10 nM), each chosen to barely slow growth alone; DMSO vehicle as the drug-free arm
Detection: 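Viability relative to non-targeting control pools, replicate mean, with a robust z-score for knock-down alone and synergy scores for each anchor drug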
Direction: robust z-score, knock-down alone: higher = more cells surviving after knock-down; viability, knock-down alone: higher = more viable cells; synergy score with trametinib and synergy score with BYL719 and synergy score with cetuximab: higher = stronger synthetic lethality with drug
Active means: 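Essential when the robust z-score of the knock-down alone is below -3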
Calls: active = essential (knock-down alone cuts viability); inactive = no change
Here is an unselected part of 794 reagents. In the full data, 16 (2%) are marked active. 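Calls reflect knock-down alone, not drug synergy; viability seems capped at 1 and z-scores at 0.585.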 Unmarked entries are inactive. Not stated in the record: the amount of reagent, the time to read-out.

| gene | robust z-score, knock-down alone | viability, knock-down alone (fraction of control) | synergy score with trametinib | synergy score with BYL719 | synergy score with cetuximab |
| --- | --- | --- | --- | --- | --- |
| PNCK (pregnancy up-regulated nonubiquitous CaM kinase) | 0.585 | 1 | -0.0229 | -0.0434 | 0.0409 |
| HK1 (hexokinase 1) | 0.585 | 1 | -0.062 | -0.0454 | -0.0122 |
| PRKAR1A | 0.585 | 1 | -0.186 | -0.106 | -0.0122 |
| PIK3CD | 0.585 | 1 | -0.00604 | -0.15 | -0.0122 |
| ERBB4 (erb-b2 receptor tyrosine kinase 4) | 0.585 | 1 | -0.121 | -0.0641 | -0.0122 |
| KRAS (KRas proto-oncogene, GTPase) | 0.376 | 0.988 | 0.0192 | -0.0471 | -0.0165 |
| NUP107 (nucleoporin 107) | 0.585 | 1 | -0.129 | -0.115 | -0.0122 |
| PRKAG1 (protein kinase AMP-activated non-catalytic subunit gamma 1) | 0.585 | 1 | 0.0339 | 0.0089 | 0.0726 |
| ACVR2B (activin A receptor type 2B) | -0.105 | 0.959 | -0.131 | -0.079 | -0.0189 |
| TTBK1 (tau tubulin kinase 1) | -1.02 | 0.905 | -0.058 | -0.0148 | -0.0546 |
| PRPS1 (phosphoribosyl pyrophosphate synthetase 1) | 0.504 | 0.995 | -0.0177 | -0.133 | -0.017 |
| GRK4 (G protein-coupled receptor kinase 4) | 0.0567 | 0.969 | -0.0633 | -0.0185 | -0.0432 |
| CDK18 (cyclin dependent kinase 18) | -2.04 | 0.844 | -0.0757 | -0.105 | 0.00407 |
| MAP2K4 (mitogen-activated protein kinase kinase 4) | 0.244 | 0.98 | -0.0557 | -0.0753 | -0.0322 |
| CHKB (choline kinase beta) | 0.0131 | 0.966 | -0.172 | -0.0947 | -0.0458 |
| IGF1R (insulin like growth factor 1 receptor) | 0.585 | 1 | -0.164 | -0.00513 | -0.0122 |
| JAK2 (Janus kinase 2) | -0.0168 | 0.964 | -0.0701 | -0.1 | -0.0475 |
| STK25 (serine/threonine kinase 25) | 0.585 | 1 | -0.0166 | -0.0477 | 0.0596 |
| JAK1 (Janus kinase 1) | 0.585 | 1 | -0.11 | -0.0928 | -0.0122 |
| CSNK1A1L (casein kinase 1 alpha 1 like) | 0.585 | 1 | -0.0206 | -0.0746 | -0.0122 |
| EIF2AK4 (eukaryotic translation initiation factor 2 alpha kinase 4) | 0.409 | 0.99 | -0.102 | -0.0753 | -0.0101 |
| PIM1 (Pim-1 proto-oncogene, serine/threonine kinase) | 0.585 | 1 | 0.0263 | -0.0121 | -0.0122 |
| GUCY2EP (guanylate cyclase 2E, pseudogene) | 0.585 | 1 | -0.147 | -0.115 | -0.0122 |
| ITPKC (inositol-trisphosphate 3-kinase C) | 0.585 | 1 | -0.186 | -0.104 | -0.0122 |
| MAGI2 | 0.585 | 1 | -0.151 | -0.0652 | -0.0122 |
| CDKN2D (cyclin dependent kinase inhibitor 2D) | -1.34 | 0.886 | -0.0203 | -0.0419 | 0.00202 |
| PFKFB1 (6-phosphofructo-2-kinase/fructose-2,6-biphosphatase 1) | 0.229 | 0.979 | 0.0903 | 0.0774 | 0.157 |
| LCK (LCK proto-oncogene, Src family tyrosine kinase) | -0.207 | 0.953 | -0.0665 | -0.0738 | 0.0595 |
| CERT1 (ceramide transporter 1) | -0.181 | 0.955 | -0.066 | -0.193 | -0.0571 |
| CEP290 (centrosomal protein 290) | 0.585 | 1 | -0.0218 | -0.103 | -0.0122 |
| RSKR (ribosomal protein S6 kinase related) | 0.585 | 1 | -0.0727 | -0.0372 | -0.0122 |
| EFNA3 (ephrin A3) | -2.01 | 0.846 | -0.21 | -0.171 | -0.113 |
| PNKP (polynucleotide kinase 3'-phosphatase) | -0.961 | 0.908 | -0.0161 | -0.076 | 0.01 |
| GNE | 0.074 | 0.97 | -0.0553 | -0.136 | -0.0422 |
